Experimental data as given in PMC5789822.
Results are given in words; binding and its absence hold for the method and conditions named. Some entries that bind do so weakly or less than the wild type. For some assays here: Where a sequence is shown, tags or fusion partners need not be part of it.

Experiments:
Gas6, Q14393 = target: T1, Gas6, Q14393; test: SPR; Biacore T100; anti-Gas6 antibody immobilised, Gas6 captured, PGRN (or BDNF) injected at 10 ul/min; both purified; conditions: remark: other sources report otherwise
T1 chain: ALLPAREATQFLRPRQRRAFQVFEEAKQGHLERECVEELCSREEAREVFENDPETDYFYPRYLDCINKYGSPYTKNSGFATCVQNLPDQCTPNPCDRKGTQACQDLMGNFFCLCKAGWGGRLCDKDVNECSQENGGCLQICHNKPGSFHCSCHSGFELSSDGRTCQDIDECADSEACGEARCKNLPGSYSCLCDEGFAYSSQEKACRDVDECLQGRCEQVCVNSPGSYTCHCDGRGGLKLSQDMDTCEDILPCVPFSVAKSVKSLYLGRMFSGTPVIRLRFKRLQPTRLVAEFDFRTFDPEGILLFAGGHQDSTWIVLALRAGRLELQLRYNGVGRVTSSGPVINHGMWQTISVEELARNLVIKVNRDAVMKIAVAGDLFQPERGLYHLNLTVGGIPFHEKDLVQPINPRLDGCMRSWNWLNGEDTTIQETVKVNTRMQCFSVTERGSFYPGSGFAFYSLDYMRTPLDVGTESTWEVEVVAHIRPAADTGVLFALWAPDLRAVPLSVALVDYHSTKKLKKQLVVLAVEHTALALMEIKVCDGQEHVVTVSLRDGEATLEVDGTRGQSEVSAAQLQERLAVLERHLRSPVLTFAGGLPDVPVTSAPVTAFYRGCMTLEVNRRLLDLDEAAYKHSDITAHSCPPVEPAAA

GST-Gas6, Q14393 = target: T2, GST-Gas6, Q14393; test: pull-down; His-PGRN and GST-Gas6 mixed in HBS-EP with 1.5 mM CaCl2, 4 °C for 6 h; pulled down with Ni-NTA agarose or glutathione-Sepharose, washed five times with PBS; both purified; conditions: remark: other sources report otherwise
T2 chain: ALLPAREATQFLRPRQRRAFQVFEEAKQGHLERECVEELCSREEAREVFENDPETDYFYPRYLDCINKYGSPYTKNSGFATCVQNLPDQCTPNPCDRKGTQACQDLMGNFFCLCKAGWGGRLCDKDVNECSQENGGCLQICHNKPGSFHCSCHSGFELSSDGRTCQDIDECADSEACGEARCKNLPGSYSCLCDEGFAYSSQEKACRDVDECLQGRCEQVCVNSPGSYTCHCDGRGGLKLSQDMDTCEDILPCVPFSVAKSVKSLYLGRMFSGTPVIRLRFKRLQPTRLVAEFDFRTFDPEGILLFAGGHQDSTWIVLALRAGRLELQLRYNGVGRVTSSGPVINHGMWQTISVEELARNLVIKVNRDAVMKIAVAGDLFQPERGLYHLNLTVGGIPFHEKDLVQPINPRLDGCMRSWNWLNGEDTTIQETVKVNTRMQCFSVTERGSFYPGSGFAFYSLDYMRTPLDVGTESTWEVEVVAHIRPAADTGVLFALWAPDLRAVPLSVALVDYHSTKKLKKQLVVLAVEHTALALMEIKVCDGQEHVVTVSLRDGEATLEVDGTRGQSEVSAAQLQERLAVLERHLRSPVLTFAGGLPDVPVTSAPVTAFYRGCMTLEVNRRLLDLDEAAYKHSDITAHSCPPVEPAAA

- binding (Gas6, Q14393): binds
- binding (GST-Gas6, Q14393): binds
B1: full-length PGRN, P28799 18-593 (protein)
chain: TRCPDGQFCPVACCLDPGGASYSCCRPLLDKWPTTLSRHLGGPCQVDAHCSAGHSCIFTVSGTSSCCPFPEAVACGDGHHCCPRGFHCSADGRSCFQRSGNNSVGAIQCPDSQFECPDFSTCCVMVDGSWGCCPMPQASCCEDRVHCCPHGAFCDLVHTRCITPTGTHPLAKKLPAQRTNRAVALSSSVMCPDARSRCPDGSTCCELPSGKYGCCPMPNATCCSDHLHCCPQDTVCDLIQSKCLSKENATTDLLTKLPAHTVGDVKCDMEVSCPDGYTCCRLQSGAWGCCPFTQAVCCEDHIHCCPAGFTCDTQKGTCEQGPHQVPWMEKAPAHLSLPDPQALKRDVPCDNVSSCPSSDTCCQLTSGEWGCCPIPEAVCCSDHQHCCPQGYTCVAEGQCQRGSEIVAGLEKMPARRASLSHPRDIGCDQHTSCPVGQTCCPSLGGSWACCQLPHAVCCEDRQHCCPAGYTCNVKARSCEKEVVSAQPATFLARSPHVGVKDVECGEGHFCHDNQTCCRDNRQGWACCPYRQGVCCADRRHCCPAGFRCAARGTKCLRREAPRWDAPLRDPALRQLL
